# Test results as given in article PMC5630306.
# Chains of the proteins cited; added tags and fusions are not shown. Lines headed by an entry give the natural chain unless they say otherwise; changes in a name come on top.
# UniProt P25911: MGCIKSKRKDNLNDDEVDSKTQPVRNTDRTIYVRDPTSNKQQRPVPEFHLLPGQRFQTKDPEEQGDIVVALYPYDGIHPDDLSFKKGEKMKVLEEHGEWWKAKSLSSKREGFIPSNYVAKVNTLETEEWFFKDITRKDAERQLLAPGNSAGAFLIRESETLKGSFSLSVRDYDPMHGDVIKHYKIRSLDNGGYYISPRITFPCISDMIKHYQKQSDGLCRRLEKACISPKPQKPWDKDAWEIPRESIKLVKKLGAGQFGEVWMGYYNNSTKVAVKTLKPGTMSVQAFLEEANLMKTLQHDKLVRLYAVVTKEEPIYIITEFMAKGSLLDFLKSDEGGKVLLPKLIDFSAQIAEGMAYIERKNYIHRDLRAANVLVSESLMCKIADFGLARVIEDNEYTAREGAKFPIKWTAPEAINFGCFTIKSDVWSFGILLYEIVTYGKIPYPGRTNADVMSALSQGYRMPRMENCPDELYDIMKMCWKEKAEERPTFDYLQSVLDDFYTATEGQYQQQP
# UniProt Q62120: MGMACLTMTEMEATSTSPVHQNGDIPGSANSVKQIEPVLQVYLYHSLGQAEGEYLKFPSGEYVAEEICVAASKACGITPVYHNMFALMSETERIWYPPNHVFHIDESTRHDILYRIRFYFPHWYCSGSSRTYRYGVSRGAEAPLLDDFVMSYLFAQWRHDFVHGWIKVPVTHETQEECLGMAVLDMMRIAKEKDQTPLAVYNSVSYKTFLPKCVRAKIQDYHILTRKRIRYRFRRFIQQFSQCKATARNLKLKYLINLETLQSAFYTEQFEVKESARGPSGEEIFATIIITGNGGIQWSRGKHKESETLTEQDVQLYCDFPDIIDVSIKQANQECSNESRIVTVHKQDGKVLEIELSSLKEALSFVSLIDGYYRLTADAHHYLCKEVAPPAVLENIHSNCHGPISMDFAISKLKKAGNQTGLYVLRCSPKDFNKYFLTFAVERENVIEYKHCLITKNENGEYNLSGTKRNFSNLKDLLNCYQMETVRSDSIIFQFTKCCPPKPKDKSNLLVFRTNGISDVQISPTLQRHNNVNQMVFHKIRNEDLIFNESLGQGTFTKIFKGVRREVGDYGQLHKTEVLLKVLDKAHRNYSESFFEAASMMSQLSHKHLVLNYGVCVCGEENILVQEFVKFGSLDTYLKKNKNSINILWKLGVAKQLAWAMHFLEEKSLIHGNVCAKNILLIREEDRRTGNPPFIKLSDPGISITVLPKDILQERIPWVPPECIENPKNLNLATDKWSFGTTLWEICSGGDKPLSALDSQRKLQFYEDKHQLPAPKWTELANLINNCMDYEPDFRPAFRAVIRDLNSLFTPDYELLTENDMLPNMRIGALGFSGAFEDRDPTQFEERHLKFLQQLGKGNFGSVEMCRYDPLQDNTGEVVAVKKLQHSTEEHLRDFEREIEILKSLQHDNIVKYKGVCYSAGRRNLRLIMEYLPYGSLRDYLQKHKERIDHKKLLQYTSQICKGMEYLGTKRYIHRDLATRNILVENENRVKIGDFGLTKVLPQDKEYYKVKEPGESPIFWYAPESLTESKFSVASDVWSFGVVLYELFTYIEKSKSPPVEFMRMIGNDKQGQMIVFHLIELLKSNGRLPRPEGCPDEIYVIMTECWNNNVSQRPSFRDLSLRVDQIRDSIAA
# UniProt Q6UN15: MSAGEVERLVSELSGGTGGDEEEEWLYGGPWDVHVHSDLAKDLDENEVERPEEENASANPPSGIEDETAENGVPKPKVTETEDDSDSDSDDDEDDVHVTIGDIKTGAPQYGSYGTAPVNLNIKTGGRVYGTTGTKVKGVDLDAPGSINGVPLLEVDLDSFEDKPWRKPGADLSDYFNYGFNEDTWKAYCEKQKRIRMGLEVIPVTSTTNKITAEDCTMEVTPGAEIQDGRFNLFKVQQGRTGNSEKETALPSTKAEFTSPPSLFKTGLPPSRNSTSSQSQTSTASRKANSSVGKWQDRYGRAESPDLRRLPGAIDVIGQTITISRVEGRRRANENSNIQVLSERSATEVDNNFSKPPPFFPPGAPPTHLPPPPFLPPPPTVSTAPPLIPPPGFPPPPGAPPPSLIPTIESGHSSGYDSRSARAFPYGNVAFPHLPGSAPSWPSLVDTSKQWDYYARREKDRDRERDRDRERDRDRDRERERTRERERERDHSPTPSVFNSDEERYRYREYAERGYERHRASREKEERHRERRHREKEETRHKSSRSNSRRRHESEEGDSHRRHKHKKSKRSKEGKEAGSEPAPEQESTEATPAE
# UniProt P07948: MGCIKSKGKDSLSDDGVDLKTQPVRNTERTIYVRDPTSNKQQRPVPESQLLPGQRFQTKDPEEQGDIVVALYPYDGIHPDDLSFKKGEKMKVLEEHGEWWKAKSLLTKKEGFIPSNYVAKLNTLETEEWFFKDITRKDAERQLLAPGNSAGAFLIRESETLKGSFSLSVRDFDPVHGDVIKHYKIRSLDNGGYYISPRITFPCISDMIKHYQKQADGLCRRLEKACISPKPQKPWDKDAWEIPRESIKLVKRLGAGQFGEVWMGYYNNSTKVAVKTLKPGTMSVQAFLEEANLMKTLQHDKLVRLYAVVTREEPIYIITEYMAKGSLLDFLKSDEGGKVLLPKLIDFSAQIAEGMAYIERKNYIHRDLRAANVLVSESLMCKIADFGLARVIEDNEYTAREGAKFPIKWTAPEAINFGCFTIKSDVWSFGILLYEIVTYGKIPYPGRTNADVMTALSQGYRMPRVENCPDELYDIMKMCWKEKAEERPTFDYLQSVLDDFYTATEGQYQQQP
# These are yes or no findings as the source states them, for the method shown. For part of these data: Binding seen in cells or lysates may run through a third protein. Some binding calls cover weakened binding; strength is not graded here.
# Experiments:
# [1] = target: Lyn (mouse (endogenous in 32D)) (UniProt P25911); test: co-IP; detergent lysates of 32D cells (in IL-3) and F/P(+) 32D cells precipitated with anti-F/P (anti-PDGFRA), anti-JAK2 or anti-Lyn and protein A-agarose; Western blot with the same antibodies
# [2] = target: Janus kinase 2 (JAK2) (mouse (endogenous in 32D)) (UniProt Q62120); test: as above
# [3] = target: FIP1L1-PDGFRA fusion protein (UniProt Q6UN15); test: SEC; detergent lysate of F/P(+) 32D cells on Superose 6 prep grade; 30 mM HEPES pH 7.4, 150 mM NaCl, 10% glycerol, 0.5% NP-40; fractions blotted; network size estimated between 2 and 6 million
# [4] = target: FIP1L1-PDGFRA fusion protein (UniProt Q6UN15); test: co-IP; detergent lysates of 32D cells (in IL-3) and F/P(+) 32D cells precipitated with anti-F/P (anti-PDGFRA), anti-JAK2 or anti-Lyn and protein A-agarose; Western blot with the same antibodies
# [5] = target: Lyn (human (endogenous in EOL-1)) (UniProt P07948); test: co-IP; EOL-1 cells starved overnight, left unstimulated or stimulated with 5 ng/mL IL-5 (5 min or the indicated times) or 25 ng/mL IL-3 at 37°C; lysates precipitated with anti-Lyn; blot with anti-phosphotyrosine 4G10
Molecule,binding [1],binding [2],binding [3],binding [4],binding [5]
FIP1L1-PDGFRA fusion protein (from UniProt Q6UN15 1-233; P16234 567-1089) (enzyme),binds,binds,,,
"IL-5 receptor α (IL-5RA), tyrosine-phosphorylated (receptor, UniProt Q01344 21-420, phosphotyrosine (sites not stated; detected with 4G10)) DLLPDEKISLLPPVNFTIKVTGLAQVLLQWKPNPDQEQRNVNLEYQVKINAPKEDDYETRITESKCVTILHKGFSASVRTILQNDHSLLASSWASAELHAPPGSPGTSIVNLTCTTNTTEDNYSRLRSYQVSLHCTWLVGTDAPEDTQYFLYYRYGSWTEECQEYSKDTLGRNIACWFPRTFILSKGRDWLAVLVNGSSKHSAIRPFDQLFALHAIDQINPPLNVTAEIEGTRLSIQWEKPVSAFPIHCFDYEVKIHNTRNGYLQIEKLMTNAFISIIDDLSKYDVQVRAAVSSMCREAGLWSEWSQPIYVGNDEHKPLREWFVIVIMATICFILLILSLICKICHLWIKLFPPIPAPKSNIKDLFVTTNYEKAGSSETEIEVICYIEKPGVETLEDSVF",,,,,binds

# The next lines start with the values.
binding [1],binding [2],binding [3],binding [4],binding [5],Molecule
binds,,binds,binds,,Janus kinase 2 (JAK2) (from UniProt Q62120 1-1132) (enzyme)
,binds,binds,binds,,Lyn (from UniProt P25911 1-512) (enzyme)
